Several values for one entry are separate records, joined by “and”; a condition that tells them apart may be missing. Equal values may be shown once. The campaign covered roughly 2,000 compounds. Fewer than 10 were called active.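 The calls were made as follows: active = growth inhibition of at least 75% in every replicate, which also brings the mean inhibition to 75% or more; inconclusive = mean inhibition 75% or more but some replicate under 75%; inactive = the rest.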 This is one part of the list.
assay: growth inhibition of PfHsp90-dependent yeast, primary screen, antimalarial PfHsp90 inhibitor project, S. cerevisiae, BacTiter-Glo luminescence (AID 504594);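 also: 0% = DMSO neutral control wells and 100% = 20 µM radicicol control wells; higher value means stronger growth inhibition because the sign is flipped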; conditions: S. cerevisiae expressing PfHsp90, BacTiter-Glo growth, 48 h; at 9.4 µM; hits give high values

Growth inhibition, inactive:
CCc1ccc(/C=C2\SC(=S)N(CCC(=O)N3CCN(C)CC3)C2=O)cc1 0.811%
COC(=O)c1cc(=O)c2ccc(OC)cc2o1 -6.99%
Cc1cccc(C)c1NS(=O)(=O)c1ccc(NC(=O)c2ccc(Cl)c([N+](=O)[O-])c2)cc1 2.94%
CN1[C@@H]2CC(OC(=O)[C@H](CO)c3ccccc3)C[C@H]1[C@@H]1O[C@@H]12 (stereo partly specified) 12.2% and 3.68%
O=C(NCc1ccc(N2CCCC2=O)cc1)c1ccc(F)cc1 5.55%
COc1cc(C(=O)Nc2cccc(-c3nnc(-c4ccco4)o3)c2)ccc1OC(C)=O -14.1%
CCNC(=S)Nc1ccc(OC(F)(F)F)cc1 4.03%
O=c1cc(-c2ccc3c(c2)OCCO3)oc2ccc(Cl)cc12 -11.1%
NC(=O)c1cnccn1 -0.413%
Cc1nc2ccccn2c(=O)c1CCN1CCC(C(=O)c2ccc(F)cc2)CC1 0.603%
CCCn1c(=O)c2[nH]c(C3CCCC3)nc2n(CCC)c1=O -9.88%
CCOC(=O)n1c(=O)oc2ccccc21 -13.3%
O=C(CCNNC(=O)c1ccncc1)NCc1ccccc1 7.36%
Oc1[nH]c2ccccc2c1C1=NCCCC1 6.2%
COc1ccc(-c2noc(CCc3ccccc3)n2)cc1 -9.73%
C=C(C)[C@@H]1CC=C(CN2CCC(N3CCC(C(=O)N4CCCC4)CC3)CC2)CC1 -0.183%
COc1cc2c(cc1NCc1ccc3c(c1)OCO3)oc1ccccc12 6.06%
CC(C)C[C@H](NC(=O)[C@@H]1Cc2ccccc2CN1C(=O)OC(C)(C)C)C(=O)NCC1CCC(C(=O)O)CC1 (stereo partly specified) -0.118%
COC(=O)c1ccc(=O)n(Cc2ccco2)c1 -3.9%
O=C(Nc1cccc(Oc2c(F)c(F)c(F)c(F)c2F)c1)N1C[C@@H]2C[C@@H](C1)c1cccc(=O)n1C2 7.42%
N/C(=N\OC(=O)c1ccc(Br)o1)c1ccccn1 1.74%
Cn1c(=O)[nH]c(=O)c2c1nc(Br)n2CCCO 1.03%
COc1cccc(OC2OC3COC(C)(C)OC3C(O)C2NC(C)=O)c1 (stereo unspecified) -1.74%
O=C(Nc1ccc(Oc2c(F)c(F)c(F)c(F)c2F)cc1)OC1CCN2Cc3ccccc3N=C12 (stereo unspecified) 2.89%
C/C=C(/C(=C/C)c1ccc(O)cc1)c1ccc(O)cc1 -5.88%
Cc1ncc([N+](=O)[O-])n1CC(C)O (stereo unspecified) -0.773%

2 records drawn at random from the list so far, as already listed:
Growth inhibition, inactive:
CCCn1c(=O)c2[nH]c(C3CCCC3)nc2n(CCC)c1=O -9.88%
O=C(CCNNC(=O)c1ccncc1)NCc1ccccc1 7.36%

Reference: PubChem BioAssay AID504594 (Broad Institute, 2011)
